Here are results for two substances from patent US5138035A (Centre National de la Recherche Scientifique, priority 1988, dated 1992).

HELM strings list residues between dots; [ac] is acetyl, [am] amide, other brackets name non-standard units.

This data set can be described thus: general procedure: solution-phase peptide synthesis; DCC. The conditions noted are these: late stage modification step.

In turn, “PEPTIDE1{[5Am2ClMeBz].G.G.G.G.F}$PEPTIDE1,PEPTIDE1,1:R1-6:R2$$$V2.0” displayed a step yield of 58%.

In turn, “PEPTIDE1{[5Am2PhMeSMeBz].G.G.G.G.K}$PEPTIDE1,PEPTIDE1,1:R1-6:R2$$$V2.0” displayed a step yield of 48%.
